Reference: PubChem BioAssay AID720505 (Drosophila RNAi Screening Center, 2013)
The deposit covers about 20,000 reagents; below is an unselected part of those that have a named target and a result. Over the whole deposit, about 2,100 (10%) were called active. 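Raw plate signals without normalisation; calls rest on control-based scores that were not deposited; replicate 2 separates called from uncalled poorly.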 Entries without a mark were called inactive. Reagents against one gene are numbered here. A plus sign joins genes that one reagent is predicted to hit. No sequences are given here. Not given: the amount of reagent, the time to read-out.

Aim: 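Fly regulators or components of the CRAC channel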 (primary screen)
System: Drosophila S2R+ cells
Reagent: long dsRNA against Drosophila genes
Treatment: thapsigargin (2 µM) in calcium-free buffer to empty internal stores, then 2 mM calcium added back
Detection: 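Stores emptied by 2 µM thapsigargin without calcium, then 2 mM calcium re-added; fluo-4 fluorescence followed by FLIPR in 384-well plates, per-well averaged endpoint, raw; two screen passes, some wells retested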
Scale: calcium signal and retest calcium signal: higher = more calcium entry after store depletion
Rule for the call: 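Knock-downs counted as hits when calcium entry dropped relative to STIM1 positive and Rho1 negative controls present on each plate; roughly 1500 genes called, with reductions of differing size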
Calls: active = called as lowering calcium entry; inactive = not called

Target gene	reagent	calcium signal, replicate 1	calcium signal, replicate 2	retest calcium signal, replicate 1	retest calcium signal, replicate 2
CG17075 (GeneID 33191)	1	98.8	151		
CG31464 (GeneID 318749)	1	90.7	169		
CG32793 (GeneID 31280)	1	107	137		
CG32793 (GeneID 31280)	2	110	161		
dpr3 (GeneID 3346208)	1	99.4	145		
dpr3 (GeneID 3346208)	2	91.2	127		
dpr3 (GeneID 3346208)	3	66.5 (active)	105		
CG10959 (GeneID 31743)	1	106	99		
Cad89D (GeneID 42006)	1	99	135		
slbo (GeneID 37889)	1	133	178	112	83.6
APP-BP1 (GeneID 39244)	1	118	123		
Irc (GeneID 42049)	1	176	289		
CR32821 + CR43381 + CR43377 + 1 more	1	83	157		
CG2691 (GeneID 32320)	1	139	128		
CG15715 (GeneID 39726)	1	105	120		
CG8152 (GeneID 36696)	1	124	206		
CG30458 (GeneID 246624)	1	197	145	129	104
Amyrel (GeneID 36863)	1	160	159		
PIG-X (GeneID 246580)	1	121	196		
CG5177 (GeneID 34017)	1	125	242		
Cip4 (GeneID 38534)	1	108	109		
Cip4 (GeneID 38534)	2	121	98.9		
CG6280 (GeneID 36522)	1	107	166		
LManI (GeneID 34436)	1	188	151		
CR33319 (GeneID 3772025)	1	126	9159		
Kebab (GeneID 48440)	1	109	284		
CG32572 (GeneID 32657)	1	109	145		
CG32572 (GeneID 32657)	2	105	165		
Inx2 (GeneID 31646)	1	173	100		
Rpn9 (GeneID 42802)	1	216	309		
CG9498 (GeneID 33885)	1	66.5 (active)	177		
Obp44a (GeneID 35789)	1	151	188		
onecut (GeneID 45816)	1	146	128		
CG14607 (GeneID 40869)	1	131	135		
eIF3d1 (GeneID 42789)	1	58.9 (active)	80.1		
CG6421 (GeneID 46813)	1	106	108		
CG7202 (GeneID 40376)	1	97.2	149		
Cyt-c1 (GeneID 38612)	1	68.9 (active)	130		
Jon65Aiii (GeneID 38683)	1	94.1	74.8		
CG31219 (GeneID 42344)	1	248	194		
CG15888 (GeneID 41630)	1	104	134		
Acsx1L (GeneID 42351)	1	134	138		
Flad1 (GeneID 32240)	1	171	142		
ind (GeneID 2768974)	1	110	195		
ind (GeneID 2768974)	2	155	149		
r-cup (GeneID 33075)	1	242	107		
Alp1 (GeneID 40372)	1	121	88.7		
CG11883 (GeneID 36121)	1	139	127		
tor (GeneID 35717)	1	147	152		
RnrL (GeneID 34392)	1	88	71.3		
cyp33 (GeneID 36984)	1	159	102		
tef (GeneID 36920)	1	122	78.3		
tef (GeneID 36920)	2	93.2	221		
Cyp6a2 (GeneID 35587)	1	116	161		
CG7800 (GeneID 40963)	1	111	133		
Qsox1 (GeneID 36464)	1	63.2	112	130	100
CG15865 (GeneID 32641)	1	108	142		
lbe (GeneID 42542)	1	190	113		
Nubp1 (GeneID 35000)	1	135	89.5		
CG3045 (GeneID 37531)	1	150	92.2		
CG12112 (GeneID 31794)	1	123	94.3		
CG11664 (GeneID 31033)	1	107	132		
ND-75 (GeneID 31762)	1	168	85.8		
CG3071 (GeneID 31213)	1	112	162		
CG11983 (GeneID 41081)	1	113	158		
ZnT41F (GeneID 35513)	1	124	161		
Lkb1 (GeneID 41673)	1	94.4	93		
Pits (GeneID 32205)	1	120	107		
Pits (GeneID 32205)	2	103	103	5888	109
THADA (GeneID 33001)	1	134	151		
CG14298 (GeneID 42259)	1	67.9 (active)	107		
CG12084 (GeneID 192509)	1	156	123		
f-cup (GeneID 41677)	1	70.8 (active)	90.8		
CG6418 (GeneID 39218)	1	90.4	121		
bbx + waw	1	131	104		
bbx + waw	2	88.1	132		
mthl3 (GeneID 36961)	1	90.4	127		
GCS1 (GeneID 32073)	1	113	106		
Clbn (GeneID 43018)	1	226	156		
Nuf2 (GeneID 33992)	1	114	187		
Mal-A8 (GeneID 35830)	1	193	161		
fan (GeneID 43926)	1	111	90.3		
kuz (GeneID 34772)	1	91.5	150		
